In patent publication US9816066B2, “Method for delivery of small molecules and proteins across the cell wall of algae using molecular transporters” (priority 2012, dated 2017):
For at least one compound, name, drawing or mass did not settle the structure.

Tested on: cell wall-deficient C. reinhardtii mutant cc-4350
Assay: Flow cytometry uptake in cell wall-deficient C. reinhardtii
Assay type: cell-based, Chlamydomonas reinhardtii
Settings: 12.5, 25 and 50 μM, 5 min

O=C1OC2(c3ccc(O)cc3Oc3cc(O)ccc32)c2ccccc21 [Fl, fluorescein]
uptake (mean fluorescence from flow cytometry): did not show any uptake
